PubChem BioAssay AID1159584, Peter MacCallum Cancer Centre | 2016

Test: 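Genes whose loss is lethal only together with E-cadherin loss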 (primary screen)
Cell system: human MCF10A breast epithelial cells, parental and CDH1-null
Knock-down reagent: siRNA against human genes
Detection: 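Cell viability by CellTiter-Glo ATP luminescence, each line scaled to the mean of mock wells across plates, then CDH1-null over parental ratio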
Reading the numbers: CDH1-null / parental viability ratio: higher = CDH1-null cells survive relatively better than parental; CDH1-null viability vs mock: higher = more viable CDH1-null cells
In all, the deposit lists about 18,000 reagents; this is a part drawn at random. Further read-outs or replicates are left out here. Reagent sequences are not shown. Not stated in the record: the amount of reagent, the time to read-out.

How did the screen score ENY2 (GeneID 56943)?
CDH1-null / parental viability ratio: 1.03; CDH1-null viability vs mock (fraction of mock): 0.8

Which result is listed for QSOX1 (GeneID 5768)?
CDH1-null / parental viability ratio: 1.1; CDH1-null viability vs mock (fraction of mock): 0.55

What did the screen give for SLC51B (GeneID 123264)?
CDH1-null / parental viability ratio: 1.14; CDH1-null viability vs mock (fraction of mock): 0.64

Which result is listed for S100A2 (GeneID 6273)?
CDH1-null / parental viability ratio: 1.01; CDH1-null viability vs mock (fraction of mock): 0.88

With DDX4 (GeneID 54514), what does the deposit list?
CDH1-null / parental viability ratio: 1.26; CDH1-null viability vs mock (fraction of mock): 0.93

How did the screen score PTGES (GeneID 9536)?
CDH1-null / parental viability ratio: 0.97; CDH1-null viability vs mock (fraction of mock): 0.97

What is on record for BPGM (GeneID 669)?
CDH1-null / parental viability ratio: 1.18; CDH1-null viability vs mock (fraction of mock): 1

For CDCP2 (GeneID 200008), what does the deposit list?
CDH1-null / parental viability ratio: 0.94; CDH1-null viability vs mock (fraction of mock): 0.58

How did the screen score SHC1 (GeneID 6464)?
CDH1-null / parental viability ratio: 1.57; CDH1-null viability vs mock (fraction of mock): 0.66

Which result is listed for NEK3 (GeneID 4752)?
CDH1-null / parental viability ratio: 0.82; CDH1-null viability vs mock (fraction of mock): 0.64

With TDRP (GeneID 157695), what does the deposit list?
CDH1-null / parental viability ratio: 0.74; CDH1-null viability vs mock (fraction of mock): 0.46

What did the screen give for ARHGAP6 (GeneID 395)?
CDH1-null / parental viability ratio: 0.99; CDH1-null viability vs mock (fraction of mock): 0.77

For SPOPL (GeneID 339745), how do the results read?
CDH1-null / parental viability ratio: 1.19; CDH1-null viability vs mock (fraction of mock): 0.86

With SSTR1 (GeneID 6751), what does the deposit list?
CDH1-null / parental viability ratio: 0.65; CDH1-null viability vs mock (fraction of mock): 0.64

For ZDHHC3 (GeneID 51304), how do the results read?
CDH1-null / parental viability ratio: 1.2; CDH1-null viability vs mock (fraction of mock): 0.98

How did the screen score LURAP1 (GeneID 541468)?
CDH1-null / parental viability ratio: 1.07; CDH1-null viability vs mock (fraction of mock): 0.9

4 of these entries, set out differently:
| gene | CDH1-null / parental viability ratio | CDH1-null viability vs mock (fraction of mock) |
| --- | --- | --- |
| S100A2 (GeneID 6273) | 1.01 | 0.88 |
| DDX4 (GeneID 54514) | 1.26 | 0.93 |
| PTGES (GeneID 9536) | 0.97 | 0.97 |
| BPGM (GeneID 669) | 1.18 | 1 |

Further reagents follow.
With KLHDC7A (GeneID 127707), what does the deposit list?
CDH1-null / parental viability ratio: 0.95; CDH1-null viability vs mock (fraction of mock): 0.73

Which result is listed for PPP2CA (GeneID 5515)?
CDH1-null / parental viability ratio: 1.17; CDH1-null viability vs mock (fraction of mock): 0.91

For ABHD15 (GeneID 116236), how do the results read?
CDH1-null / parental viability ratio: 0.85; CDH1-null viability vs mock (fraction of mock): 0.5

How did the screen score IL22 (GeneID 50616)?
CDH1-null / parental viability ratio: 0.79; CDH1-null viability vs mock (fraction of mock): 0.49

With CALM1 (GeneID 801), what was measured?
CDH1-null / parental viability ratio: 0.83; CDH1-null viability vs mock (fraction of mock): 0.6

For SCARF1 (GeneID 8578), what does the deposit list?
CDH1-null / parental viability ratio: 1; CDH1-null viability vs mock (fraction of mock): 0.36

How did the screen score ADTRP (GeneID 84830)?
CDH1-null / parental viability ratio: 1.22; CDH1-null viability vs mock (fraction of mock): 0.73

What did the screen give for PLAG1 (GeneID 5324)?
CDH1-null / parental viability ratio: 1.22; CDH1-null viability vs mock (fraction of mock): 0.9

What did the screen give for PYROXD2 (GeneID 84795)?
CDH1-null / parental viability ratio: 0.94; CDH1-null viability vs mock (fraction of mock): 0.62

For KLHL36 (GeneID 79786), what was measured?
CDH1-null / parental viability ratio: 1; CDH1-null viability vs mock (fraction of mock): 0.78

What did the screen give for LEPROT (GeneID 54741)?
CDH1-null / parental viability ratio: 1.08; CDH1-null viability vs mock (fraction of mock): 0.79

Which result is listed for RPUSD2 (GeneID 27079)?
CDH1-null / parental viability ratio: 0.69; CDH1-null viability vs mock (fraction of mock): 0.59

For NAALADL2 (GeneID 254827), what was measured?
CDH1-null / parental viability ratio: 1.07; CDH1-null viability vs mock (fraction of mock): 0.92

Which result is listed for SPIDR (GeneID 23514)?
CDH1-null / parental viability ratio: 1.25; CDH1-null viability vs mock (fraction of mock): 0.64

For TFAP2C (GeneID 7022), how do the results read?
CDH1-null / parental viability ratio: 0.86; CDH1-null viability vs mock (fraction of mock): 0.62

What did the screen give for TNK1 (GeneID 8711)?
CDH1-null / parental viability ratio: 0.75; CDH1-null viability vs mock (fraction of mock): 0.54

With ORC5 (GeneID 5001), how do the results read?
CDH1-null / parental viability ratio: 1.24; CDH1-null viability vs mock (fraction of mock): 1.04

What is on record for TMEM131L (GeneID 23240)?
CDH1-null / parental viability ratio: 1.11; CDH1-null viability vs mock (fraction of mock): 0.98

How did the screen score TRA2A (GeneID 29896)?
CDH1-null / parental viability ratio: 1.22; CDH1-null viability vs mock (fraction of mock): 1.1

How did the screen score SMIM21 (GeneID 284274)?
CDH1-null / parental viability ratio: 0.91; CDH1-null viability vs mock (fraction of mock): 0.74

With PTPRE (GeneID 5791), what does the deposit list?
CDH1-null / parental viability ratio: 1.37; CDH1-null viability vs mock (fraction of mock): 0.74

For HELB (GeneID 92797), what does the deposit list?
CDH1-null / parental viability ratio: 1.02; CDH1-null viability vs mock (fraction of mock): 1.19

For SIRPG (GeneID 55423), what was measured?
CDH1-null / parental viability ratio: 1.19; CDH1-null viability vs mock (fraction of mock): 0.88

With TNFSF8 (GeneID 944), what does the deposit list?
CDH1-null / parental viability ratio: 1.28; CDH1-null viability vs mock (fraction of mock): 0.77

For HSPA4 (GeneID 3308), what was measured?
CDH1-null / parental viability ratio: 0.98; CDH1-null viability vs mock (fraction of mock): 0.93

How did the screen score UBL3 (GeneID 5412)?
CDH1-null / parental viability ratio: 0.95; CDH1-null viability vs mock (fraction of mock): 1.02

For RWDD1 (GeneID 51389), how do the results read?
CDH1-null / parental viability ratio: 0.85; CDH1-null viability vs mock (fraction of mock): 0.64

Which result is listed for CIMAP1B (GeneID 440836)?
CDH1-null / parental viability ratio: 1.6; CDH1-null viability vs mock (fraction of mock): 0.72

What is on record for COX10 (GeneID 1352)?
CDH1-null / parental viability ratio: 0.83; CDH1-null viability vs mock (fraction of mock): 0.79
